Source: PubChem BioAssay AID504467 (National Center for Advancing Translational Sciences (NCATS), 2011)
Out of some 330,000 compounds screened, about 7,700 (2.3%) were called active. Inconclusive means that the source gave no clear call. Such entries were picked first, then a sample of the others. The call rests on the fitted dose curve; in most records, active means well fitted inhibition curve with a large enough effect; inconclusive means small, poorly fitted or top-dose-only effect, or effect the other way; inactive means flat fitted curve, though single readings scatter. A potency beside an inconclusive call is a rough fit, not a confirmed value.

Assay: qHTS screen for small molecules that inhibit ELG1-dependent DNA repair in human embryonic kidney (HEK293T) cells expressing luciferase-tagged ELG1; further: nearly all actives have a fitted effect of over 55% in size
Conditions: HEK293T ELG1-luciferase reporter, luminescence, 16 h, DNA damage induced by 5-fluorouridine; series mostly up to 46.1 µM
How it was run: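 Cells (2,000 per well) received 5-fluorouridine plus test compound or DMSO and were incubated 16 hr at 37 °C, 5% CO2. Luciferase activity was read by luminescence 30 min after ONE-Glo addition; signal suppression marked inhibition of damage-induced ELG1 function.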
Potency means the concentration at half of the fitted maximal effect.

Row | Structure (SMILES) | Potency
1 | CCC(=O)Nc1ccc(C(=O)N2CCN(C(=O)c3ccco3)CC2)cc1 | inactive
2 | CCN(C(=O)c1cn(CC)c(=O)c2cc(OC)c(OC)cc12)c1ccccc1C | inconclusive: 20.6 µM [inhibitor, single point]
3 | Cc1c(NC(=O)c2cc3nc(-c4ccc(Cl)cc4)cc(C(F)(F)F)n3n2)c(=O)n(-c2ccccc2)n1C | inconclusive: 14.6 µM [inhibitor, partial curve]
4 | COc1ccccc1NC(=O)C1=C(C)NC(SCC(=O)c2ccc(C)cc2)=C(C#N)C1c1ccco1 (configuration not stated) | active: 16.4 µM
5 | CC1(C)Cc2c(sc3nc4n(c(=N)c23)CCC4)CO1 | inactive
6 | COc1cc(/C=C2\CCC(C3CCCC3)C2=O)ccc1OC(C)C (configuration not stated) | inconclusive: 29.1 µM [activator, single point]
7 | O=C(CCC(=O)N1CCN(S(=O)(=O)c2ccc3ccccc3c2)CC1)NCC(F)(F)F | inactive
8 | Cc1ccc(C)c(-n2nnnc2SCC(=O)c2ccc3c(c2)NC(=O)CO3)c1 | inconclusive: 35.5 µM [inhibitor, single point]
9 | Cc1nn(-c2ccc(F)cc2)c(Cl)c1C(=O)OC(C)C(=O)N(C)C1CCCCC1 (configuration not stated) | inconclusive: 23.1 µM [inhibitor, partial curve, poor fit]
10 | O=C(Nc1cccnc1)c1noc2c1CCCCC2 | inconclusive: 2.06 µM [activator, full curve]
11 | O=C(c1ccc(F)cc1F)N1CCCC(c2nc(-c3cccs3)no2)C1 (configuration not stated) | inconclusive: 29.1 µM [inhibitor, single point]
12 | COc1cc(/C=C/C(=O)c2ccc3c(c2)OCCO3)cc(Br)c1OCC(=O)N(C)C | inconclusive: 18.3 µM [inhibitor, single point]
13 | O=C(NCCC1=CCCCC1)C1CCN(S(=O)(=O)c2cccs2)CC1 | inconclusive: 1.64 µM [activator, single point]
14 | NNC(=O)c1nc[nH]c1C(=O)Nc1ccccn1 | inactive
15 | CCc1n[nH]c(=S)n1/N=C/c1ccccc1OCc1ccc(Cl)cc1 | inconclusive: 18.3 µM [activator, single point]
16 | Cc1ccc(NC(=O)CNc2cccc(S(=O)(=O)N3CCCC3)c2)cc1F | inconclusive: 18.3 µM [inhibitor, partial curve]
17 | O=C(O)c1cncc(C#Cc2ccccc2)c1 | inactive
18 | CCCN(CCC)S(=O)(=O)c1ccc(C(=O)NNC(=O)c2cc(OC)c(OC)c(OC)c2)cc1 | inconclusive: 13 µM [inhibitor, partial curve]
19 | CCOC(=O)C(N)CSC1CC(=O)N(CCc2ccccc2)C1=O (configuration not stated) | inactive
20 | CC(C)CC(=O)NC(=S)Nc1ccc(Cl)cn1 | inconclusive: 20.6 µM [activator, partial curve]
21 | C[C@@H]1[C@H]2[C@@H]3CC[C@@H](C3)[C@H]2CN[C@H]1c1cn(Cc2ccccc2)c2ccccc12 | inactive
22 | Cc1ccc(Nc2nc(Oc3ccc(OCc4ccccc4)nn3)nc(N3CCOCC3)n2)cc1 | inconclusive: 9.2 µM [inhibitor, single point]
23 | Cc1ccccc1-c1ccc(C(=O)NCc2ccccc2)o1 | inconclusive: 20.6 µM [activator, single point]
24 | Cc1ccccc1-c1cc(=O)c2ccccc2o1 | inactive

Row | Structure (SMILES) | Potency
25 | Fc1ccc(-n2cc(-c3ccccc3)c3c(N4CCOCC4)ncnc32)cc1 | active: 20.6 µM
26 | O=C1C=CN(Cc2ccccc2)C(c2ccccc2)C1 (configuration not stated) | inactive
27 | Cc1cc(C)nc(NC(=NCCc2c[nH]c3ccccc23)NC(=O)c2ccco2)n1 | active: 11.6 µM
28 | C/C(=N\N=C\c1ccccc1F)c1nnn(-c2nonc2N)c1C | inconclusive: 23.1 µM [activator, single point]
29 | CCC(COC)Oc1cc(NCc2ccccc2)c2ncn(C(C)C)c2c1 (configuration not stated) | active: 18.3 µM
30 | Cc1nc2ccc(NC(=O)N(C(C)C)C(C)C)cc2s1 | inconclusive: 23.1 µM [activator, partial curve]
31 | Cc1ccc(S(=O)(=O)N2CCCCC2)cc1NC(=O)C1CC(=O)N(c2ccc3c(c2)OCCO3)C1 (configuration not stated) | inactive
32 | CCOc1ccc(S(=O)(=O)NCc2ccncc2)cc1 | inconclusive: 0.82 µM [inhibitor, full curve, poor fit]
33 | CCN(CC(=O)NCc1cccs1)CC(=O)Nc1ccc(C(N)=O)cc1 | inconclusive: 7.3 µM [activator, single point]
34 | Cc1ccccc1S(=O)(=O)N1[C@@H](c2ccc(Cl)cc2)C(C(=O)O)=CC[C@H]1c1ccc(Cl)cc1 | inactive
35 | COc1cccc(NC(=O)CN(c2ccc([N+](=O)[O-])cc2)S(=O)(=O)c2ccccc2)c1 | inconclusive: 25.9 µM [inhibitor, partial curve]
36 | C[C@H](CO)N1C[C@H](C)[C@@H](CN(C)C(=O)Nc2ccc(C(F)(F)F)cc2)Oc2c(NC(=O)Nc3ccc(C(F)(F)F)cc3)cccc2C1=O | active: 16.4 µM
37 | CCOC(=O)c1sc(NC(=O)c2ccc3nc[nH]c3c2)nc1C | inconclusive: 4.61 µM [activator, full curve]
38 | CC(C)(C)C(=O)NNC(=O)c1cc(C(C)(C)C)nn1Cc1ccccc1 | inconclusive: 4.11 µM [activator, single point]
39 | O=C(COc1ccc(S(=O)(=O)NC2CCCCC2)cc1)N1CCN(c2ccc(F)cc2)CC1 | active: 9.2 µM
40 | Cc1ccccc1OCC(=O)NNC(=O)CCN1C(=O)c2ccccc2C1=O | inactive
41 | Nc1ccccc1C#Cc1ccccc1 | inconclusive: 16.4 µM [activator, partial curve]
42 | COc1ccc(CNc2cc(C)nc3ncnn23)c(OC)c1 | inconclusive: 1.84 µM [inhibitor, partial curve, poor fit]
43 | CCn1c(SCC(=O)N/N=C/c2c[nH]c3ccccc23)nnc1-c1ccc(C(C)(C)C)cc1 | active: 18.4 µM
44 | O=C(COc1ccc2c(c1)CCC2)N1CCN(c2ccc(F)cc2)CC1 | inconclusive: 18.3 µM [inhibitor, partial curve, poor fit]
45 | CCN1CCCC1CNC(=O)c1cc(S(=O)(=O)N(C)C)ccc1Cl (configuration not stated) | inactive
46 | CCn1nnc(-c2ccccc2NC(=O)c2cc(OC)c(OC)c(OC)c2)n1 | active: 16.4 µM
47 | O=C(c1ccc(Br)o1)N1CCN(Cc2ccccc2Cl)CC1 | inconclusive: 18.3 µM [inhibitor, partial curve]
48 | CSc1cccc(NS(=O)(=O)c2ccc(-c3coc(C)n3)cc2)c1 | inconclusive: 20.6 µM [inhibitor, partial curve]

Row | Structure (SMILES) | Potency
49 | Cc1nc(SCC(=O)c2ccccc2)c(C#N)c(-c2ccco2)c1C(=O)NCc1ccco1 | inconclusive: 23.1 µM [inhibitor, single point]
50 | COC(=O)c1ccc(-n2c(C)cc(-c3csc(NC(=O)c4ccc(S(=O)(=O)N(C)C)cc4)n3)c2C)cc1 | active: 13 µM
51 | Cc1cccc(C)c1NC(=S)N1CCOCC1 | inconclusive: 0.103 µM [inhibitor, full curve]
52 | Nc1c(C(=O)N2CCCCCC2)oc2ccccc12 | inconclusive: 25.9 µM [activator, single point]
53 | COC(=O)[C@H](Cc1ccccc1)NC(=O)Cn1cnc2c(NCc3ccccc3)ncnc21 | inactive
54 | O=C(Cc1cccc2ccccc12)Nc1ccccc1C(=O)O | inconclusive: 18.4 µM [activator, single point]
55 | N#CC(Sc1ccccn1)c1ccc(Cl)cc1Cl (configuration not stated) | inactive
56 | CCOc1ccc(C2CC(c3ccc(F)cc3)n3ncnc3N2)cc1 (configuration not stated) | inactive
57 | Cc1sc2ncn(CC(=O)NCCCC(=O)N3CCN(Cc4ccc5c(c4)OCO5)CC3)c(=O)c2c1C | inconclusive: 20.6 µM [inhibitor, partial curve]
58 | COc1ccc(CC(=O)N2CCN(c3ccccc3F)CC2)cc1OC | inconclusive: 16.4 µM [inhibitor, single point]
59 | O=C(NC1CCN(CC(=O)N(c2ccccc2)c2ccccc2)CC1)c1ccc([N+](=O)[O-])cc1 | inconclusive: 32.6 µM [inhibitor, single point]
60 | COc1ccc(-c2cc(C(=O)N3CCc4ccccc4C3)no2)cc1 | inactive
61 | O=C(O)COc1ccccc1/C=N/NC(=O)CNC(=O)c1ccco1 | inactive
62 | Cc1cccc(N2C(=O)/C(=C/c3cccnc3)SC2=S)c1 | inactive
63 | CCc1ccc(S(=O)(=O)/N=C2\C=CC(=O)c3ccccc32)cc1 | inconclusive: 23.1 µM [inhibitor, single point]
64 | CCC(C)(C(=O)NC1CCCCC1)N(C(=O)CC1NC(=O)NC1=O)c1c(C)n(C)n(-c2ccccc2)c1=O (configuration not stated) | inactive
65 | COC(=O)Cc1c(C)c2ccc(OCC(=O)N(C)C3CCS(=O)(=O)C3)cc2oc1=O (configuration not stated) | inactive
66 | O=C(COc1ccccc1Cl)Nc1ccc(C(=O)O)cc1NC(=O)COc1ccccc1Cl | inconclusive: 29.1 µM [activator, single point]
67 | COc1ccccc1NC(=S)NC(=O)C1CC1 | inactive
68 | CCOc1ccc(C2C(C(=O)c3ccco3)=C(O)C(=O)N2CCCn2ccnc2)cc1OC (configuration not stated) | inconclusive: 16.4 µM [activator, single point]
69 | S=C(NCCSCc1ccccc1Cl)Nc1ccccc1 | inactive
70 | COc1ccc(-c2oc3cc(O)c(OC)c(O)c3c(=O)c2OC)cc1 | inactive
71 | [O-][n+]1onc2c1CCC(=N/O)/C2=N\Nc1ccccc1 | inconclusive: 16.4 µM [activator, partial curve, poor fit]
72 | CCC1=C(c2cc(OC)c(OC)c(OC)c2)C2(CCCC2)C(=O)O1 | inconclusive: 0.231 µM [inhibitor, full curve, poor fit]

3 records drawn at random from the list so far, as already listed:
Row | Structure (SMILES) | Potency
62 | Cc1cccc(N2C(=O)/C(=C/c3cccnc3)SC2=S)c1 | inactive
63 | CCc1ccc(S(=O)(=O)/N=C2\C=CC(=O)c3ccccc32)cc1 | inconclusive: 23.1 µM [inhibitor, single point]
67 | COc1ccccc1NC(=S)NC(=O)C1CC1 | inactive
